Data taken from ChEMBL document CHEMBL3988442, “University of Dundee, Small-Polar-MMV Screening Library” (2021).

Sequences of proteins named here, by UniProt entry; tags and fusion partners are left off. Residues count along the entry.
UniProt Q8IDJ8, 1-583: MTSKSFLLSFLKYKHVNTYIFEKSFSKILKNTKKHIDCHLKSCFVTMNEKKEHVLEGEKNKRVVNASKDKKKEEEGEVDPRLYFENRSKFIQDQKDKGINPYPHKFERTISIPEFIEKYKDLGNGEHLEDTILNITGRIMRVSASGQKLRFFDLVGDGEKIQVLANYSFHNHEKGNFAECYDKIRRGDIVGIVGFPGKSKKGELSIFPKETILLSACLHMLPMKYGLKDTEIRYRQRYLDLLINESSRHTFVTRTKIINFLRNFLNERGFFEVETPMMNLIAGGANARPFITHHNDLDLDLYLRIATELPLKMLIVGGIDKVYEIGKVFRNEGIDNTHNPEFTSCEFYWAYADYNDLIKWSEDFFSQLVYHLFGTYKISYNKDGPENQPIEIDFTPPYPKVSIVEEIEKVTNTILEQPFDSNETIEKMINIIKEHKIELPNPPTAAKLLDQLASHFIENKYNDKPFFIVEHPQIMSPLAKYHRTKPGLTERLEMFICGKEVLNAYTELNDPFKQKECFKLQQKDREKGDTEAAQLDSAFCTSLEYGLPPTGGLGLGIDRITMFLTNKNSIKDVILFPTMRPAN
UniProt P9WFT3, whole entry: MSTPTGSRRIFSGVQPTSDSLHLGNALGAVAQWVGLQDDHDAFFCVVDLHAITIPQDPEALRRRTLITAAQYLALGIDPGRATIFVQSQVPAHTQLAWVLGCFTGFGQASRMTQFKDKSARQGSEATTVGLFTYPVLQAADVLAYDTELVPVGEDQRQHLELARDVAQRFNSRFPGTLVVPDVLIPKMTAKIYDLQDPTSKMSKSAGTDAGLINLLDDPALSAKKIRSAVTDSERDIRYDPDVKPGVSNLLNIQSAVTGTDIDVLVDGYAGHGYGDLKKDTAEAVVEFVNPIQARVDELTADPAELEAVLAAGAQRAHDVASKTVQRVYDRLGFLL
UniProt P9WPC5, whole entry: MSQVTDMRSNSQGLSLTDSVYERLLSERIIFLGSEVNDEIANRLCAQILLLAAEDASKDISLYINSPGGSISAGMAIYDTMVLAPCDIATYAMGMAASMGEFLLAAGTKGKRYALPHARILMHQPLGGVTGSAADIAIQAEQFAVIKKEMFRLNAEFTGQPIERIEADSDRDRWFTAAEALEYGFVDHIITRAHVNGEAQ
UniProt P9WPC3, whole entry partner: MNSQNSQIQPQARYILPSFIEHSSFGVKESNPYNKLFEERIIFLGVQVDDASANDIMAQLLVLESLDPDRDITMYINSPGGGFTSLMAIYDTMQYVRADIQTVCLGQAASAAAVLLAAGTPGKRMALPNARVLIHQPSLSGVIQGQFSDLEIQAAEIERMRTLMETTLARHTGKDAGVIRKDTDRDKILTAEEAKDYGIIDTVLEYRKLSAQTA

A: 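Lysine-tRNA ligase, Plasmodium falciparum 3D7 (UniProt Q8IDJ8). Enzyme assay of the cytosolic lysyl-tRNA synthetase in 384-well plates, read by luminescence. Compounds at 30 µM. Higher reads as stronger inhibition, judged from the few compounds that gave an IC50. Of about 69,000 compounds tested this way, about 49 (0.071%) reached 50% or more in at least one test.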
B: 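Enzyme assay of tryptophanyl-tRNA synthetase; the read-out is not stated. Target: Tryptophan-tRNA ligase, Mycobacterium tuberculosis (UniProt P9WFT3). Compounds at 10 µM. Direction is not recorded; retested compounds ran higher, which suggests that high means inhibition. About 65,000 compounds were tested under these conditions; 0.098% (about 64) showed 50% or more at least once.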
C: 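Protease assay of ClpP1P2, read by the AMC dye that it sets free. Target: ClpP1P2, Mycobacterium tuberculosis (UniProt P9WPC5 and UniProt P9WPC3). Compounds at 50 µM. Direction is inferred from only a few compounds that gave an IC50; most scored high, so higher reads as stronger inhibition. Most other retested compounds had strongly negative values. About 69,000 compounds were tested under these conditions; 0.015% (about 10) showed 50% or more at least once.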

Values are the deposited “Percent Effect”, in %. The record does not define 0% and 100%; most values in the screen are far below 50% and negative numbers occur (in some assays of this library far below -100). Compounds were drawn at random from those tested, without regard to their results. A dash means the value is not listed here; it may have been measured.

compound,A,B,C
COc1ccc(Cl)cc1-n1nc(C2CCCC2)nc1Cn1cnnn1,-2.533%,3.695%,-3.255%
CC(Cn1ccnc1)NC(=O)N(C)Cc1ccco1 (centres undefined),-1.775%,-1.982%,-12.68%
COc1coc(CN2CCCC(CCc3c(F)cccc3F)C2)cc1=O (centres undefined),7.189%,1.005%,-7.853%
CCn1nc(C)c(CN(CCOC)C(=O)c2ccc(=O)[nH]n2)c1C,6.339%,-6.197%,-4.746%
O=C(c1ccoc1)N1CCC2(C1)CN(c1ncc(F)cn1)C2,2.189%,-1.139%,-19.9%
CC(C)(CNc1cn[nH]c(=O)c1Cl)c1ccc2c(c1)OCCO2,7.519%,1.456%,15.4%
CC(C)n1nc(CN2CCCCC2)c2c1CN(C(=O)c1ccno1)C2,5.535%,-,8.404%
COc1ccc(NC(=O)c2cnc(N(C)C3CCCCC3)nc2N)cc1,-0.15%,-3.391%,-11.55%
CN(CCn1cccn1)c1cc(C(F)(F)F)nc(-c2cccnc2)n1,8.111%,-6.12%,-8.259%
CNS(=O)(=O)c1ccc(C(=O)NC2CCc3nc(C)cn3C2)o1 (centres undefined),2.486%,-3.931%,11.43%
Cc1csc(N(C)C(=O)C2CC(=O)N(c3ccccc3F)C2)n1 (centres undefined),6.369%,-5.899%,5.933%
CC(=O)NC1CCCN(C(=O)c2ccc(Br)cc2O)C1 (centres undefined),7.658%,-2.582%,6.944%
CN(C)C(Cn1ccnc1-c1nccn1C)c1ccccc1Cl (centres undefined),9.457%,2.992%,-12.79%
CO[C@H]1COCCN(C(=O)c2ccc(C#N)cc2)C1,-2.402%,11.06%,-17.34%
CC(=O)N1CCN(CCNC(=O)NC(C)Cn2ccnc2)CC1 (centres undefined),-0.6933%,1.738%,-0.1625%
Cc1nn(C)c2ncnc(NCc3nncn3C3CCCCC3)c12,1.829%,0.9524%,-14.4%
COCC(=O)NC[C@@]1(COc2cccnc2)C[C@@H](O)[C@@H](O)C1,3.591%,0.3814%,-17.02%
O=C(c1cccnc1)N1CCc2[nH]nc(Nc3ccccc3)c2C1,1.415%,0.1319%,-12.21%
CN(C)C(=O)C1(Oc2ccc(Cl)cc2)CCNCC1,1.753%,-1.838%,-14.87%
CCCc1n[nH]c(C2CN(C(=O)C3=COCCC3)CCO2)n1 (centres undefined),-0.8139%,1.267%,-0.5402%
CCc1ncc2c(n1)CN(Cc1cn3ccsc3n1)CC2,2.946%,1.288%,-9.58%
FC1(F)CCN(Cc2cccnc2)CC12CCN(c1ccccc1)C2 (centres undefined),1.687%,-,-15.69%
CNC(=O)c1ccc(C(=O)N2CCCC(n3nc(C)cc3C)C2)cn1 (centres undefined),-1.111%,-3.992%,-5.961%
COCCN1CCO[C@@H]2CN(C(=O)Cc3cccc(F)c3)CC[C@@H]2C1,4.194%,-0.7319%,10.52%
O=C(C1CCOC1)N1CCN(CC2CC2)c2ccccc21 (centres undefined),0.3994%,4.542%,1.083%
CCn1ccnc1CN1CCCC1C(=O)Nc1nccs1 (centres undefined),2.4%,-1.709%,-0.03542%
N#Cc1cc(NC(=O)c2cc[nH]n2)ccc1N1CCC(O)CC1,1.305%,8.377%,-6.19%
Cc1ccc(CN2CCN(C(=O)CCc3nc(Cl)n[nH]3)CC2=O)cc1,6.285%,4.881%,-1.783%
CC(C)=CCN1C(=O)[C@H]2CC[C@@H]1CN(Cc1cccnc1N)C2,3.576%,-2.654%,0.1423%
CN(C)c1cc(CNC(=O)Nc2cccnc2N2CCCC2)ccn1,0.9528%,-3.672%,-26.54%
c1cnc(NC[C@@H]2CCC[C@@H]3CN(Cc4cccnc4)C[C@@H]32)nc1,6.539%,-5.253%,9.717%
Nc1ncc(-c2cccc(NC(=O)[C@@H]3CCCCN3)c2)cn1,2.247%,-,-10.06%
O=C(CCCn1cncn1)N1CCC2(CCCN(C3CCCC3)C2=O)C1 (centres undefined),9.107%,-2.673%,-1.418%
c1cc(-c2noc([C@@H]3CCCN3CC3CC3)n2)cc(N2CCCC2)n1,5.424%,-4.348%,-14.21%
CN1CC[C@@H]2OC[C@H](C(=O)N(C)Cc3ccccn3)C[C@@H]2C1,4.777%,-,8.279%
CNC(=O)[C@@H]1C[C@@H](N)CN1C1CCN(Cc2ccccn2)CC1,-5.973%,8.101%,11.2%
O=C(c1cccs1)N1CC[C@H]2C[C@@H](c3nnc(C4CC4)o3)O[C@@H]2C1,1.269%,-,-1.235%
CCc1c(C)nc2cc(C3CCN(Cc4ccncc4C)C3)nn2c1O (centres undefined),0.1551%,-,-0.2284%
CC(=O)N1CCCN(C(=O)NCCCc2cn[nH]c2C)CC1,-1.259%,-4.562%,-13.11%
CCc1nc(CC(=O)N2CCn3c(C)nnc3C2)cs1,0.5604%,-0.000005%,-25.8%
CC(C)n1cc(CN2CCCN(C(=O)c3ccnn3C)CC2)cn1,3.959%,-4.307%,-20.1%
c1cc(CCN2CCCC2CN2CCCCC2)ccn1 (centres undefined),-0.6174%,-1.488%,-6.014%
COc1ccccc1OC1(C(=O)O)CCN(c2ncccc2F)CC1,10.65%,1.505%,-15.13%
CCC(=O)N1CCC2(C=C(C(=O)N(C)C)c3ccccc32)CC1,-0.1452%,-,-3.647%